# Experiment: general procedure: Fmoc solid-phase peptide synthesis; Fmoc-NH-SAL-PEG Resin HL
# Details: oxidative folding step
substance,measurement,value
Ac-RGNCAYHKGQLVWCTYH-NH2,oxidative folding yield,90% or more

# Source: patent US12024549 (dated 2024)
